# Laboratory results: PubChem BioAssay AID1671195 (Yale University, 2021)
# Aim: 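Genes whose knockdown alters LDL uptake in liver cancer cells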 (primary screen)
# Cells: human Huh7 hepatoma cells
# Reagents: siRNA pool against human genes, 18 nM
# Duration: about 2 to 2.5 days of knockdown, then 8 h LDL uptake
# Treatment: DiI-labelled LDL at 30 µg/ml for 8 h, in lipoprotein-deficient serum medium
# Measurement: 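Fluorescent LDL signal imaged in cells, scaled to the plate median, robust z-score for each replicate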
# Reading the numbers: robust z-score: higher = more LDL uptake after knockdown
# Call rule: 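Active when two or more replicates show a robust z-score above 2 or below -2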
# This is an unselected part of about 22,000 reagents. Over the whole deposit, about 1,510 (6.9%) were called active. 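Active includes knockdowns raising or lowering LDL uptake; positive z-scores mean more uptake, negative mean less.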
Target gene,"robust z-score, replicate 1","robust z-score, replicate 2","robust z-score, replicate 3",Call
CIMAP1C,-0.136,0.855,-0.552,inactive
RTL5,-0.249,-0.408,-0.514,inactive
STK36,0.358,-0.358,0.712,inactive
CS,-0.142,1.23,0.195,inactive
PRPS1L1,0.47,1.6,1.53,inactive
CATSPERQ,-0.99,-0.251,-0.819,inactive
MPHOSPH10P1,1.1,0.665,1.3,inactive
WDR83OS,0.839,0.991,1.79,inactive
TM6SF1,-0.74,1.92,-1.69,inactive
CRTC1,-1.41,0.823,-2.12,inactive
CACNA2D4,-0.434,-1.15,-0.977,inactive
HIVEP1,-0.221,-1.7,-0.79,inactive
ADCY5,-0.65,-1.37,-0.172,inactive
EXOC2,1.84,2.48,-0.655,inactive
ERCC5,-1.03,-1.14,-0.962,inactive
HMGCL,2.47,1.06,2.65,active
RHOBTB3,1.5,0.0609,-0.73,inactive
TMEM125,4.36,3.36,3.75,active
BRAF,-0.48,-1.29,-0.745,inactive
LYPD6,-0.582,-0.851,-0.417,inactive
MRPS28,0.805,-0.822,1.56,inactive
FGD2,-1.02,-0.62,-1.15,inactive
LOC286129 (retired record),-0.176,-0.493,-0.968,inactive
CYP1A2,0.806,-0.206,0.66,inactive
LOC441941 (retired record),0.149,0.269,0.284,inactive
MAJIN,-0.0561,-0.197,-0.435,inactive
C17orf78,0.69,0.558,0.438,inactive
LOC387870 (retired record),0.424,0.522,0.224,inactive
ZFYVE27,0.101,-0.159,-1.04,inactive
LOC440035 (retired record),1.58,1.02,0.626,inactive
CES1,-0.991,0.154,-0.189,inactive
PEAK3,-1.64,-1.12,-1.64,inactive
ZNF347,-1.02,-1.03,-0.952,inactive
MFSD12,-0.214,-0.737,-0.804,inactive
PALM,1.01,0.192,0.982,inactive
TMEM260,-0.904,-0.455,0.32,inactive
FZD4,-0.529,-0.269,-0.438,inactive
ZMYND19,-1.36,-1.23,-2,inactive
BTG3,-0.373,2.33,1.28,inactive
WNT4,0.473,0.535,0.612,inactive
LIPH,-0.0142,0.609,0.0352,inactive
ARL3,1.82,0.366,1.06,inactive
ITGB3BP,-1.32,-0.962,-1.07,inactive
LOC401165 (retired record),-0.0192,-0.307,0.399,inactive
ITK,-0.393,-0.00118,-0.721,inactive
CLDN2,2.62,2.94,3.05,active
LINC01720,-0.0402,0.163,-0.123,inactive
ANKRD26P1,-0.541,-1.45,-1.37,inactive
CHCHD4,-1.09,0.0385,-0.733,inactive
MTCL1,-0.433,0.216,0.369,inactive
PYGO2,1.52,1.39,1.88,inactive
ABCB4,-0.202,0.884,-0.0434,inactive
CD79A,-0.839,-0.732,0.233,inactive
MAGED2,0.127,-1.08,-0.429,inactive
DEFB129,0.544,0.618,0.265,inactive
SLC25A16,1.18,0.762,0.676,inactive
PCARE,2.36,3.13,2.55,active
FBXO27,0.253,-1.78,-0.398,inactive
SPAG16,3.15,2.07,3.19,active
PPP1R21,-0.946,-0.527,0.332,inactive
DHX29,-0.692,-0.465,0.603,inactive
GOLGA7,-0.0469,-0.476,-0.154,inactive
LOC390342 (retired record),-0.0234,0.335,0.187,inactive
PCYT1A,1.7,0.962,2.25,inactive
LIPA,-0.487,-0.246,-0.556,inactive
TCP11L2,-0.589,-0.511,-0.375,inactive
PTER,0.811,1.74,0.583,inactive
SMARCA1,-0.0313,-0.289,-0.605,inactive
